Source: PubChem BioAssay AID1508597 (Cure First, 2020)
This is a random part of the about 2,100 reagents, in one setting of the screen. 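Calls flag viability under 80% in either arm, not effects specific to rucaparib; the reference for percent is not stated.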 Not stated in the record: the 100% reference.

Test: 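Survival screen with siRNA in ovarian cancer cells derived from patients, with or without rucaparib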 (primary screen)
System: human ovarian carcinoma lines grown from tumours: OCI-P5x (papillary serous) and OCI-C5x (clear cell)
Reagent: siRNA pool against human genes, 1.25 pmol siRNA per well
Duration: 72 h or 96 h, depending on the cell culture
Challenge: rucaparib 20 µM (about IC30) or vehicle, present until read-out
Rucaparib or vehicle: Rucaparib
Cell line: OCI-C5x (clear cell)
Detection: 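Luminescent ATP-based viability assay read 72 or 96 h after transfection, depending on culture, given as normalised percent viability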
Direction: viability, normalised: higher = more viable cells remaining
Hit rule: 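a well counts as a hit if its normalised viability is under 80 percent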
Calls: active = viability under 80%; inactive = viability 80% or more

no.	target	technical replicate	viability, normalised (%)	activity call
1	GNPAT	1	41.1	active
2	GNPAT	2	59.9	active
3	GNPAT	3	58	active
4	FYN	1	64.1	active
5	FYN	2	44	active
6	FYN	3	60.6	active
7	USP16	1	55.9	active
8	USP16	2	47.4	active
9	USP16	3	42.7	active
10	COPS3	1	62.7	active
11	COPS3	2	74.2	active
12	COPS3	3	66.4	active
13	DMC1	1	42	active
14	DMC1	2	48.3	active
15	DMC1	3	47.7	active
16	PAK4	1	54.4	active
17	PAK4	2	46.4	active
18	PAK4	3	50.1	active
19	MED21	1	51.2	active
20	MED21	2	41.7	active
21	MED21	3	51.1	active
22	PLG	1	50.2	active
23	PLG	2	51.2	active
24	PLG	3	35.5	active
25	MBD1	1	54	active
26	MBD1	2	33.4	active
27	MBD1	3	49.5	active
28	RIOX1	1	51.1	active
29	RIOX1	2	45.1	active
30	RIOX1	3	34.9	active
31	DLG1	1	46.9	active
32	DLG1	2	69.6	active
33	DLG1	3	57.1	active
34	ACTB	1	40.6	active
35	ACTB	2	46.8	active
36	ACTB	3	27.4	active
37	MTA2	1	43.2	active
38	MTA2	2	59.3	active
39	MTA2	3	48.6	active

In a second layout: 6 of the entries above
target	technical replicate	viability, normalised (%)	activity call
DLG1	3	57.1	active
ACTB	1	40.6	active
ACTB	2	46.8	active
ACTB	3	27.4	active
MTA2	1	43.2	active
MTA2	2	59.3	active
